Measured values taken from PubChem BioAssay AID493014 (National Center for Advancing Translational Sciences (NCATS), 2011).
In all, about 340,000 compounds went through this assay and about 170 (0.05%) were called active. Inconclusive results, whose numbers are uncertain, are shown with a selection of clear calls. The call rests on the fitted dose curve; in most records, active means well fitted inhibition curve with a large enough effect in the signal ratio, with a control signal flat (not every such curve was filed as active); inconclusive means small, poorly fitted or top-dose-only effect, or effect the other way, or a change in a side signal; inactive means flat fitted curve, though single readings scatter; the % refers to the signal ratio. Potencies of inconclusive entries are doubtful fits and often do not repeat.

Assay: qHTS Assay to Find Inhibitors of Chronic Active B-Cell Receptor Signaling;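 on activity change, negative = inhibition: plate controls were basal doxycycline-induced cells for no effect and cells given 10 µM MG132 for full effect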
Settings: ABC-DLBCL IkBa-CBG/CBR reporter, luminescence ratio (green luciferase fused to IkBa over red control in TMD8 lymphoma cells), 4 h; activity change, negative = inhibition: at 46.1 µM (top of the series)
Outline: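 TMD8 human ABC-DLBCL cells with doxycycline-inducible IκBα–green luciferase fusion and unfused red luciferase, in 0.5% FBS medium; compounds up to 46 uM, 4 h at 37C. Green/red luminescence ratio, filter-overlap corrected, fitted to concentration-response curves.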
Potency means the concentration at half of the fitted maximal effect.

| SMILES | activity change, negative = inhibition | Potency |
| --- | --- | --- |
| C/C(=N\NC(=O)c1ccc2c(c1)OCO2)c1ccc(C(=O)O)s1 | inconclusive: 266% | – |
| Cn1cc(CN2CCC(O)CC2)c(-c2ccc(Oc3ccccc3)cc2)n1 | inconclusive: 3.79% | – |
| O=C(CSc1ncnc2ccccc12)NCCc1ccccc1 | inconclusive: 3.59% | – |
| Cc1ccc(C(=O)NC(Cc2c[nH]c3ccccc23)C(=O)O)cc1 (stereo not given) | inactive: 2.87% | – |
| N#Cc1c(NC(=S)NC(=O)c2ccccc2)sc2c1CCC2 | inconclusive: -0.747% | – |
| CCn1nc(C)c(CNC(=O)c2cc(COc3ccccc3SC)on2)c1C | – | inconclusive: 20 µM [falling, single point] |
| COc1ccc(CCNC(=O)c2cc(S(=O)(=O)N3CCC4(CC3)OCCO4)ccc2F)cc1OC | inconclusive: 8.95% | – |
| NNC(=O)c1cc(-c2ccc(N)cc2)nc2ccc(Br)cc12 | inactive: 4.37% | – |
| CCCCn1c(N)c(N(CCOC)C(=O)c2cc(-c3ccc(C)cc3)nc3ccccc23)c(=O)[nH]c1=O | inactive: -6.87% | – |
| CCOc1cccc2cc(-c3nnc(NCc4ccc5c(c4)OCO5)s3)c(=O)oc12 | inactive: -18% | – |
| COc1cccc(CN(C)C(=O)Cc2c[nH]c3ccccc23)c1OC | inactive: 1.25% | – |
| CC1=C(C(=O)OCC2CCCO2)C(c2ccccc2)C2=C(CCCC2=O)N1 (stereo not given) | inactive: 18.3% | – |
| CS(=O)(=O)c1ccc2nc(NC(=O)CN3CCCCCC3)sc2c1 | inconclusive: -1.27% | – |
| Cc1ccc(C)c(N2C(=O)N(Cc3ccccc3C)c3ccccc3S2(=O)=O)c1 | inconclusive: -1.41% | – |
| COCCn1c(=NC(=O)CSC(C)=O)sc2cc(OC)ccc21 | inactive: -19.7% | – |
| CCn1cc(C2=NC(c3ccccc3)CO2)c2ccccc21 (stereo not given) | inconclusive: 3.18% | – |
| CCOc1ccccc1C1C(C(=O)Nc2ccccc2OC)=C(C)Nc2nnnn21 (stereo not given) | inconclusive: -17.8% | – |
| COc1ccc(C#Cc2c(-c3ccccc3)n(C)c3ccccc23)cc1 | inconclusive: -13% | – |
| O=C1N[C@@H](Cc2ccccc2)COC(=O)[C@H](Cc2ccc(F)cc2)C/C=C\C[C@H]1CC(=O)N(CCO)Cc1ccccc1 | inconclusive: 0.229% | – |
| N#CC1=C(SCc2ccc(C#N)cc2)N=C(N)C(c2nc(-c3ccccc3)cs2)C12CCCCC2 (stereo not given) | – | inconclusive: 0.651 µM [rising, full curve, poor fit] |
| C[C@H]1CN([C@@H](C)CO)C(=O)c2cccc(NC(=O)Nc3ccc(C(F)(F)F)cc3)c2O[C@@H]1CN(C)S(=O)(=O)c1ccc(Cl)cc1 | inconclusive: -0.181% | – |
| O=C(Nc1ccc(N2CCN(c3ncccc3C(F)(F)F)CC2)nc1)c1cccs1 | – | inconclusive: 20 µM [rising, partial curve, poor fit] |
| CCOc1nnnc2c1sc1nc(N3CCOCC3)c3c(c12)CCCC3 | – | inconclusive: 16.4 µM [rising, partial curve, poor fit] |
| O=C(c1cc(C(=O)N2CCOCC2)c2nc3ccccc3n2c1)c1ccccc1O | inconclusive: -0.653% | – |
| O=C(COc1cccc(Br)c1)Nc1ccc(N2CCOCC2)cc1N1CCOCC1 | inconclusive: -0.549% | – |
| COCCN=C1N[C@@H](c2cccc(C(F)(F)F)c2)C(C(=O)OC)=C(C)N1Cc1ccccc1 | – | inconclusive: 20 µM [falling, partial curve] |
| COCCN(C(=O)COC(=O)CSc1ccc(Cl)cc1)c1c(N)n(Cc2ccccc2)c(=O)[nH]c1=O | – | inconclusive: 23.1 µM [falling, single point] |

| SMILES | activity change, negative = inhibition | Potency |
| --- | --- | --- |
| CN(C)c1cccc(C(=O)NCc2ccccc2Cl)c1 | – | inconclusive: 12.6 µM [falling, partial curve] |
| COc1ccc(-c2cc(C(=O)N3CCCCC3)no2)cc1OC | inconclusive: -5.09% | – |
| COc1ccc2cc3c(N)nn(C(=O)Cc4ccccc4OC)c3nc2c1 | – | inconclusive: 7.31 µM [activator, full curve, poor fit] |
| O=C(NCc1ccco1)C1CC(c2cccc([N+](=O)[O-])c2)=NO1 (stereo not given) | – | inconclusive: 15.8 µM [falling, single point] |
| COc1cc(NC(=O)N[C@H](C(=O)O)C(C)C)cc(OC)c1 | inactive: 1.3% | – |
| CCOC(=O)c1ccc(S(=O)(=O)N2CCN(C/C=C/c3ccccc3)CC2)cc1 | inactive: 3.7% | – |
| Cc1ccc(C(=O)NCC(=O)N(C)Cc2cccc(F)c2)s1 | inconclusive: 0.043% | – |
| O=C(N/N=C/c1ccc(OC(=O)c2cccs2)cc1)c1ccc(F)cc1 | inconclusive: -26.9% | – |
| COc1ccc(NC(=O)c2nc(C)c(C3(C)CC(c4ccccc4)=NO3)s2)cc1 (stereo not given) | – | inconclusive: 31.6 µM [falling, single point] |
| COc1ccc(-c2nc(C)ncc2-c2ccc(Cl)cc2)c(O)c1 | inconclusive: -0.552% | – |
| CC(/C=C1\SC(=S)N(NC(=O)c2ccncc2)C1=O)=C\c1ccccc1 | inactive: -4.89% | – |
| CCCSc1nnc(Nc2ccccc2C)s1 | – | inconclusive: 20 µM [falling, single point] |
| S=c1[nH]nc(-c2cccnc2)n1/N=C/C=C/c1ccco1 | inactive: -1.23% | – |
| C(=N\N1CCN(c2ccccc2)CC1)/c1ccccc1 | inconclusive: 9.39% | – |
| CCCCOc1ccc(-c2nnc(-c3ccco3)o2)cc1 | inconclusive: 7.93% | – |
| Cc1ccc(C)c(OCc2cc(C(=O)N3CC[C@@H]4CCCC[C@H]4C3)no2)c1 | inactive: 2.96% | – |
| CCOC(=O)N1CCN(c2cc(=O)n(Cc3ccc(F)cc3)c(=O)[nH]2)CC1 | inactive: 5e-06% | – |
| CCCn1c(=N)n(CC(=O)OCC)c2ccccc21 | inactive: 0.191% | – |
| Cc1c(CCC(=O)O)c(=O)n2c([nH]c3ccccc32)c1C#N | inconclusive: -12.4% | – |
| Cc1cc(C)cc(NC(=O)C2CCCN(c3nccc(C)n3)C2)c1 (stereo not given) | inconclusive: -6.06% | – |
| O=C1C=C(c2ccc3c(c2)oc2ccccc23)C[C@@H](c2ccc3c(c2)OCO3)C1 | inconclusive: -2.25% | – |
| COc1ccc(CCNC(=O)CCCCCN2C(=O)[C@@H]3Cc4ccccc4CN3C2=O)cc1OC | inconclusive: -17.5% | – |
| COc1ccc(OC)c2sc(N(Cc3cccnc3)C(C)=O)nc12 | inactive: -1.59% | – |
| Cc1ccc(NC(=O)C2CCCCC2)cc1C | inconclusive: 6.75% | – |
| CCOC(=O)c1cc2cc3ccccc3cc2oc1=O | inconclusive: 5.99% | – |
| O=C(C1CCCN(S(=O)(=O)Cc2ccccc2)C1)N1CCC(Cc2ccccc2)CC1 (stereo not given) | – | inconclusive: 2.91 µM [falling, partial curve, poor fit] |
| O=C(N/N=C/c1ccccc1)c1cc(=O)[nH]c2ccccc12 | inconclusive: 11.5% | – |

| SMILES | activity change, negative = inhibition | Potency |
| --- | --- | --- |
| CCc1ccc(S(=O)(=O)/N=C2\C=C(NS(=O)(=O)c3ccccc3)C(=O)c3ccccc32)cc1 | inconclusive: -3.5% | – |
| Cc1cccc(NC(=O)c2cc(NC(=O)c3ccco3)ccc2Cl)n1 | – | active: 23.1 µM |
| CCC(=O)c1cn(CC(=O)Nc2cccc(C)c2)c2ccccc12 | inconclusive: 1.96% | – |
| COc1cc2c(cc1OC)C(C)N(Cc1ccc3c(c1)OCO3)CC2 (stereo not given) | inactive: -21% | – |
| CCOC(=O)N1CCC(N2CCCC(CO)(Cc3cccc(Cl)c3)C2)CC1 (stereo not given) | inconclusive: 16% | – |
| C=CCNC(=O)c1cc2cccc(OC)c2oc1=O | – | inconclusive: 14.1 µM [falling, single point] |
| O=c1oc2ccccc2c(O)c1C=Nc1cccnc1 | – | inconclusive: 11.2 µM [falling, partial curve] |
| Cc1ccccc1NC(=O)CSC1=C(C#N)C(c2ccsc2)CC(=O)N1 (stereo not given) | – | inconclusive: 20.6 µM [falling, partial curve, poor fit] |
| O=C(Nc1nccs1)c1cc(-c2ccncc2)nc2ccccc12 | inconclusive: 5.62% | – |
| COc1ccc(-c2noc(CN3CCOCC3)n2)cc1OC | – | inconclusive: 29.1 µM [falling, single point] |
| COc1cc(Cl)ccc1OCc1cc(C(=O)N2CCCCCCC2)no1 | inconclusive: 5.2% | – |
| O=[N+]([O-])C1C(c2ccccc2)=NOC1c1ccccc1O (stereo not given) | – | inconclusive: 10 µM [falling, partial curve] |
| C=CCn1c(Cc2cccc3ccccc23)n[nH]c1=S | – | inconclusive: 32.6 µM [falling, partial curve, poor fit] |
| O=C1N[C@@H](Cc2ccccc2)C(=O)N2CCC[C@@H]12 | inactive: 1.88% | – |
| COC(=O)COC(=O)c1ccc(-n2nnnc2SC)cc1 | – | inconclusive: 29.1 µM [falling, single point] |
| Cc1ccc(S(=O)(=O)N/N=C\c2ccc([N+](=O)[O-])o2)cc1 | inconclusive: 13.3% | – |
| CC(COc1ccc(C(C)C)cc1)NC(=O)c1ccc(Br)o1 (stereo not given) | inactive: -13.3% | – |
| Cc1nc2ccc(C(=O)O)cc2[nH]1 | inconclusive: -15.2% | – |
| COc1cc(C(=O)N/N=C/c2cn(Cc3cccc(F)c3)c3ccccc23)ccc1O | – | inconclusive: 11.2 µM [falling, partial curve, poor fit] |
| CN1C(=O)/C(=C/c2ccc(C(F)(F)F)cc2)Sc2ccc(C(=O)N3CCN(c4ccccn4)CC3)cc21 | inactive: -3.6% | – |
| O=S(=O)(Cc1cc(Cl)nc(-c2ccncc2)n1)c1ccccc1 | inconclusive: 2.8% | – |
| Cc1ncc(CN2CCCC(C(=O)Nc3ccc(-c4cscn4)cc3)C2)cn1 (stereo not given) | – | inconclusive: 11.2 µM [falling, partial curve] |
| Cc1cc(C(=O)N2CCN(c3ccccc3)CC2)c(C)o1 | inactive: -2.07% | – |
| CCCn1c(SCC(=O)N(C)CC(=O)Nc2ccc(C)cc2)n[nH]c1=O | inconclusive: 0.39% | – |
| COc1ccc(CN2C(=O)CN=C2Nc2cc(C)ccc2C)cc1 | – | inconclusive: 16.4 µM [falling, single point] |
| CNC(=O)c1ccc(Nc2nnc(-c3ccc(O)cc3)c3ccccc23)cc1 | – | inconclusive: 11.2 µM [falling, partial curve, poor fit] |

In the list so far, these contain a CF3 group.

| SMILES | activity change, negative = inhibition | Potency |
| --- | --- | --- |
| C[C@H]1CN([C@@H](C)CO)C(=O)c2cccc(NC(=O)Nc3ccc(C(F)(F)F)cc3)c2O[C@@H]1CN(C)S(=O)(=O)c1ccc(Cl)cc1 | inconclusive: -0.181% | – |
| O=C(Nc1ccc(N2CCN(c3ncccc3C(F)(F)F)CC2)nc1)c1cccs1 | – | inconclusive: 20 µM [rising, partial curve, poor fit] |
| COCCN=C1N[C@@H](c2cccc(C(F)(F)F)c2)C(C(=O)OC)=C(C)N1Cc1ccccc1 | – | inconclusive: 20 µM [falling, partial curve] |
| CN1C(=O)/C(=C/c2ccc(C(F)(F)F)cc2)Sc2ccc(C(=O)N3CCN(c4ccccn4)CC3)cc21 | inactive: -3.6% | – |
